{
  "source": "paper PMC5946105",
  "binders": {"B1": {"name": "flotillin-1 (protein, UniProt O75955 1-427)", "chain": "MFFTCGPNEAMVVSGFCRSPPVMVAGGRVFVLPCIQQIQRISLNTLTLNVKSEKVYTRHGVPISVTGIAQVKIQGQNKEMLAAACQMFLGKTEAEIAHIALETLEGHQRAIMAHMTVEEIYKDRQKFSEQVFKVASSDLVNMGISVVSYTLKDIHDDQDYLHSLGKARTAQVQKDARIGEAEAKRDAGIREAKAKQEKVSAQYLSEIEMAKAQRDYELKKAAYDIEVNTRRAQADLAYQLQVAKTKQQIEEQRVQVQVVERAQQVAVQEQEIARREKELEARVRKPAEAERYKLERLAEAEKSQLIMQAEAEAASVRMRGEAEAFAIGARARAEAEQMAKKAEAFQLYQEAAQLDMLLEKLPQVAEEISGPLTSANKITLVSSGSGTMGAAKVTGEVLDILTRLPESVERLTGVSISQVNHKPLRTA"}},
  "biological_target": "endogenous α-actinin (human (endogenous in MCF10A))",
  "test": "co-IP; polyclonal anti-α-actinin antibody on Dynabeads Protein A; stable control MCF10A cell lysate, 500 µg total protein; 10 mM Tris-HCl pH 8.0, 150 mM NaCl, 5 mM EDTA, 0.5% Triton X-100, 60 mM N-octylglucoside; Western blot",
  "note": "These are yes or no findings as the source states them, for the method shown. Binding seen in cells or lysates may run through a third protein. Binding calls can cover weak binding; strength is not graded here.",
  "data": [
    {"binder": "B1", "values": [
      {"measurement": "binding", "result": "binds"}
    ]}
  ]
}
